Test results: PubChem BioAssay AID1259354 (Paczesny and Yang Labs, IUPUI and University of Michigan, 2018)
“And” between values parts separate entries of the source, which are not always exact repeats. Identical values can stand only once. In all, about 78,000 compounds went through this assay and about 1,800 (2.3%) were called active. The inconclusive results got no clear call from the source; some entries with a clear call stand among them for comparison. Rule as the data show it: active = inhibition above about 30%; inconclusive = mostly about 10% to 28%; inactive = weaker than that.

By UniProt entry, the sequences of proteins in these tests, tags left out. Where a name states a change or a piece, a line headed by the entry shows the natural chain unless it says otherwise.
UniProt Q01638: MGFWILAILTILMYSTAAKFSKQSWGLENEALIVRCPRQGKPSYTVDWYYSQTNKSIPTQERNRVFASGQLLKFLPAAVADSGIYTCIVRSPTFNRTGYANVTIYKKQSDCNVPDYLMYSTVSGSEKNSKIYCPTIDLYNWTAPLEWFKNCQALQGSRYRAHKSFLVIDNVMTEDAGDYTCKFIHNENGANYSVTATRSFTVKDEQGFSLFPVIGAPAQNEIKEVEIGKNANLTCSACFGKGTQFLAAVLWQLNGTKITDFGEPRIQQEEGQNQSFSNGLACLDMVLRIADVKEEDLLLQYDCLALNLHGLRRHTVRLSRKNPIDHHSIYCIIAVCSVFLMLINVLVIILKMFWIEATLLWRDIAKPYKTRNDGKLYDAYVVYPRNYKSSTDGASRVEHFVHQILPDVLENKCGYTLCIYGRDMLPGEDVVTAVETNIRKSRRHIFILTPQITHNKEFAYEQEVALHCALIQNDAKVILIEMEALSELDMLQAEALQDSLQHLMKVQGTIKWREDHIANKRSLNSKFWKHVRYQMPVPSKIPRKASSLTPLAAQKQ

molecular target: Interleukin-1 receptor-like 1 (Homo sapiens) (UniProt Q01638); assay: blocks human ST2 binding to IL-33, primary screen, biochemical, AlphaLISA (AID 1259354); conditions: AlphaLISA ST2-Fc/biotin-IL-33 interaction, 1 h; at 17 µM, stronger effect = higher value

**Q.** `COc1cccc2cc(C(=O)NC(C)=O)c(=Nc3ccc(C#N)cc3)oc12` was tested. Which inhibition did it give?
**A.** Its inhibition is inconclusive: 16%.

**Q.** How did the inhibition turn out when `CCS(=O)(=O)c1ncc(CN2CCN(C(=O)c3ccco3)CC2)n1CCOC` was run?
**A.** The inhibition was inconclusive: 11%.

**Q.** Which inhibition does the source give for `O=C(O)C1CC(=O)N(Cc2nc3c(s2)CCCC3)C1` (stereo unspecified) here?
**A.** Its inhibition is “inactive”.

**Q.** How did the inhibition turn out when `CSc1nnc(Cc2cc(=O)[nH]c(=O)[nH]2)n1-c1ccccc1` was run?
**A.** Its inhibition is inconclusive: 14%.

**Q.** For `CCOc1ccc(S(=O)(=O)Nc2ccc3oc(=O)sc3c2)cc1`, which inhibition is on record?
**A.** Its inhibition is inconclusive: 10%.

**Q.** With `O=C(Nc1ccc(N2CCC(NC3Cc4ccccc4C3)CC2)cc1)C1CCCC1` as the compound, how does the inhibition read?
**A.** Its inhibition is inconclusive: 13%.

**Q.** For `CC1CNCCN1S(=O)(=O)c1cccc2cnccc12` (stereo unspecified), which inhibition is on record?
**A.** The inhibition was inconclusive: 10%.

**Q.** For `Cc1ccsc1-c1ncnn1-c1ccc(Cl)cc1`, which inhibition is on record?
**A.** Its inhibition is inconclusive: 22%.

**Q.** Which inhibition does the source give for `CN(Cc1ccc2nsnc2c1)C(=O)CC1COCCN1` (stereo unspecified) here?
**A.** Its inhibition is inconclusive: 25%.

**Q.** `CCOC(=O)C(C)(C)Sc1nc2c(c(=O)n1-c1ccccc1)SCC2` was tested. Which inhibition did it give?
**A.** The inhibition was inconclusive: 22%.

**Q.** How did the inhibition turn out when `C=CCNC(=O)c1noc2c1CCc1cc(OC)ccc1-2` was run?
**A.** The inhibition was “inactive”.

**Q.** For `Cc1cc(N2CCN(C)CC2)nc2ccc(NC(=O)c3ccc(Cl)nc3)cc12`, which inhibition is on record?
**A.** Its inhibition is “inactive”.

**Q.** For `O=C(Nc1ccc(I)cc1)c1ccco1`, which inhibition is on record?
**A.** Its inhibition is “inactive”.

**Q.** Which inhibition does the source give for `O=C(CSc1nc2c(c(=O)n1-c1ccccc1)SCC2)N1CCCCCC1` here?
**A.** Its inhibition is inconclusive: 23%.

**Q.** `CN1[C@@H](CCC(=O)Nc2ccccc2)CNC(=O)[C@@H]2[C@H]1CCN2Cc1ccc(F)cc1` was tested. Which inhibition did it give?
**A.** The inhibition was inconclusive: 15%.

**Q.** Which inhibition does the source give for `O=C1NC(=Nc2cccc(O)c2)S/C1=C\c1cccc(O)c1` here?
**A.** Its inhibition is inconclusive: 17%.

**Q.** Which inhibition does the source give for `O=C(COc1ccccc1)N1CCN(c2ccc([N+](=O)[O-])c(NCCc3ccccc3)c2)CC1` here?
**A.** The inhibition was active: 33%.

**Q.** For `Nc1ccc(C(=O)Nc2ccc(NC(=O)c3ccc(N)cc3)cc2)cc1`, which inhibition is on record?
**A.** The inhibition was inconclusive: 15%.

**Q.** Which inhibition does the source give for `CNCCC(Oc1ccccc1OC)c1ccccc1` (stereo unspecified) here?
**A.** The inhibition was inconclusive: 16%.

**Q.** For `Cc1ccccc1OCC(=O)Nc1ccc(C)c(OCc2cc(=O)n3cccc(C)c3n2)c1`, which inhibition is on record?
**A.** Its inhibition is “inactive”.

**Q.** `CCN1CCN(C(=O)c2cn(C)c(=O)c3cc(OC)c(OC)cc23)CC1` was tested. Which inhibition did it give?
**A.** Its inhibition is “inactive”.

**Q.** For `O=C(O)CCS(=O)(=O)Cc1ccc(Cl)cc1`, which inhibition is on record?
**A.** Its inhibition is “inactive”.

**Q.** How did the inhibition turn out when `Cc1ccccc1-c1noc(CCC(=O)NC(C)Cc2ncccc2C)n1` (stereo unspecified) was run?
**A.** Its inhibition is “inactive”.

**Q.** Which inhibition does the source give for `Cc1cc(C)c(NS(=O)(=O)Cc2ccccc2)c(C)c1` here?
**A.** Its inhibition is “inactive”.

**Q.** How did the inhibition turn out when `Cc1c(NC(=O)N(c2ccccc2)c2ccccc2)c(=O)n(-c2ccccc2)n1C` was run?
**A.** Its inhibition is “inactive”.

**Q.** Which inhibition does the source give for `CCC(C)NC(=O)CSCc1nc(-c2ccc(SC)cc2)oc1C` (stereo unspecified) here?
**A.** The inhibition was inconclusive: 20%.

**Q.** With `O=C(Nc1ccc(=O)n2c1[C@@H]1C[C@@H](CN(S(=O)(=O)c3ccccc3)C1)C2)c1ccc2c(c1)OCO2` as the compound, how does the inhibition read?
**A.** The inhibition was inconclusive: 12%.

**Q.** With `O=C(Nc1ccc(-c2nc3ccccc3o2)cc1)c1cc(=O)c2ccccc2o1` as the compound, how does the inhibition read?
**A.** The inhibition was “inactive”.

**Q.** `Cc1ccc(-c2nnc(-c3nc(N4CCCCCC4)c4ccccc4n3)o2)cc1` was tested. Which inhibition did it give?
**A.** The inhibition was inconclusive: 15%.

**Q.** `Cc1ccc(N2C(=O)CC(Sc3ccccn3)C2=O)cc1` (stereo unspecified) was tested. Which inhibition did it give?
**A.** The inhibition was inconclusive: 20%.

**Q.** `Cc1ccc(S(=O)(=O)NC2=NCN(c3ccc(Cl)cc3)CN2)cc1` was tested. Which inhibition did it give?
**A.** Its inhibition is “inactive”.

**Q.** For `CC(=O)c1cc2c(cc1NC(=O)c1cnn3c(C(F)(F)F)cc(-c4ccco4)nc13)OCO2`, which inhibition is on record?
**A.** The inhibition was “inactive”.

**Q.** Which inhibition does the source give for `CN=c1sc(C(=O)Nc2cccc(Cl)c2)cc(=O)n1C` here?
**A.** Its inhibition is inconclusive: 19%.

**Q.** Which inhibition does the source give for `Oc1c(C(Nc2ccccn2)c2ccccc2Br)ccc2cccnc12` (stereo unspecified) here?
**A.** The inhibition was inconclusive: 18%.

**Q.** Which inhibition does the source give for `Cc1cc(NC(=O)c2cc(-c3cccs3)on2)no1` here?
**A.** The inhibition was inconclusive: 11%.

**Q.** With `Cc1nc2cccnc2n1C1CCN(C(=O)NCCc2ccccc2)CC1` as the compound, how does the inhibition read?
**A.** The inhibition was inconclusive: 10%.

**Q.** Which inhibition does the source give for `COc1ccc(NC(=O)N2CC[C@H]3CC(=O)N(CCN4CCNC4=O)CC[C@H]3C2)cc1` here?
**A.** Its inhibition is active: 53%.

**Q.** Which inhibition does the source give for `CC(c1ccncn1)N(C)Cc1cn(C)nc1-c1ccc(C2CCCCC2)cc1` (stereo unspecified) here?
**A.** The inhibition was “inactive”.

**Q.** For `CSc1nc2c(c(=O)[nH]1)C(c1ccc3c(c1)OCO3)C1=C(CCCC1=O)N2` (stereo unspecified), which inhibition is on record?
**A.** The inhibition was “inactive”.

**Q.** Which inhibition does the source give for `CC(=O)Nc1ccc(C(=O)NCCc2ccc(F)cc2)cc1` here?
**A.** The inhibition was “inactive”.

**Q.** With `Cn1cc(CN2CCC(CCC(=O)NCc3ccc(F)cc3)CC2)c2ccccc21` as the compound, how does the inhibition read?
**A.** Its inhibition is inconclusive: 21%.

**Q.** How did the inhibition turn out when `C[C@H]1[C@@H]2[C@@H](O)C([C@H](C)C(=O)NC3CCCC3)CC[C@@]2(C)CC[C@@H]1NC(=O)Cc1ccccc1` (stereo partly specified) was run?
**A.** The inhibition was inconclusive: 24%.

**Q.** For `CN1CCCn2nc(C(=O)NC(Cn3cccn3)c3ccccc3)cc2C1` (stereo unspecified), which inhibition is on record?
**A.** The inhibition was inconclusive: 10%.

**Q.** With `O=c1[nH]c(-c2ccc(Br)cc2)cn1-c1ccc(Cl)cc1` as the compound, how does the inhibition read?
**A.** The inhibition was inconclusive: 17%.

**Q.** With `COc1ccc(NC(=O)N2C[C@@H]3C[C@H](C2)c2c(NC(=O)C4CCCCC4)ccc(=O)n2C3)cc1` as the compound, how does the inhibition read?
**A.** The inhibition was inconclusive: 12%.

**Q.** How did the inhibition turn out when `CN(C)C(=O)N1CC[C@@H](c2ccc3ccccc3c2)[C@H](O)C1` was run?
**A.** Its inhibition is inconclusive: 13%.

**Q.** With `O=S(=O)(c1ccc(F)cc1)N1CCSC1c1ccccc1` (stereo unspecified) as the compound, how does the inhibition read?
**A.** Its inhibition is “inactive”.

**Q.** How did the inhibition turn out when `CC(C)c1noc(C(C)NC(=O)Cc2noc3ccccc23)n1` (stereo unspecified) was run?
**A.** The inhibition was inconclusive: 12%.

**Q.** With `COc1ccc(Cc2nncn2-c2ccc(F)cc2F)cc1` as the compound, how does the inhibition read?
**A.** The inhibition was inconclusive: 14%.

**Q.** `Cc1cc(-c2cc(NC3CCNCC3)nc3[nH]ccc23)c(=O)[nH]c1C` was tested. Which inhibition did it give?
**A.** The inhibition was active: 38%.

**Q.** With `Fc1ccccc1-n1cc(-c2ccnc(NCc3ccon3)n2)cn1` as the compound, how does the inhibition read?
**A.** The inhibition was inconclusive: 15%.

**Q.** With `Cc1ccc(CSc2nc3c(c(=O)n2-c2ccccc2)SCC3)cc1` as the compound, how does the inhibition read?
**A.** Its inhibition is inconclusive: 18% and inconclusive: 16%.

**Q.** How did the inhibition turn out when `O=C(Nc1ccccc1F)c1cc2ccccc2o1` was run?
**A.** Its inhibition is “inactive”.

**Q.** With `C=CCN(CC=C)C(=O)CN1CCN(S(=O)(=O)N2CCCC2)CC1` as the compound, how does the inhibition read?
**A.** Its inhibition is “inactive”.

**Q.** How did the inhibition turn out when `CCOc1ccnc(N2CCCC(OCc3cccnc3)C2)n1` (stereo unspecified) was run?
**A.** The inhibition was inconclusive: 19%.

**Q.** `CC(C)CNC(=O)c1cn(C2CCN(c3nccs3)CC2)nn1` was tested. Which inhibition did it give?
**A.** The inhibition was inconclusive: 23%.

**Q.** How did the inhibition turn out when `O=C(C1CCCc2c1[nH]c1ccccc21)N1Cc2cnn(CCO)c2C1` (stereo unspecified) was run?
**A.** Its inhibition is inconclusive: 13%.

**Q.** For `Cc1oc(-c2ccccc2Cl)nc1CSCC(=O)NC1CCCC1`, which inhibition is on record?
**A.** Its inhibition is inconclusive: 10%.

**Q.** For `CCCc1cc(C(=O)N2CCC3(CCCN(Cc4cccc(OC)c4OC)C3)C2)n(C)n1` (stereo unspecified), which inhibition is on record?
**A.** The inhibition was “inactive”.

**Q.** With `COc1cc(C)ccc1CN1CCC2(CC1)CCN(C(=O)C(C)C)CC2` as the compound, how does the inhibition read?
**A.** The inhibition was inconclusive: 10%.

**Q.** With `Clc1ccccc1-n1nc2ccc3nonc3c2n1` as the compound, how does the inhibition read?
**A.** The inhibition was inconclusive: 19%.
